# The supplement of paper PMC6411743
# ± gives the standard deviation of the averaged measurements. Only a part is listed here, and it is no random draw.
# Tests used:
# Assay in all cases: NP40-soluble protein abundance relative to vehicle (solubility fold change) (ratio); higher = more soluble protein in presence of ATP
# CDS2 = target: T1, CDS2 (UniProt O95674)
# T1 sequence (whole entry): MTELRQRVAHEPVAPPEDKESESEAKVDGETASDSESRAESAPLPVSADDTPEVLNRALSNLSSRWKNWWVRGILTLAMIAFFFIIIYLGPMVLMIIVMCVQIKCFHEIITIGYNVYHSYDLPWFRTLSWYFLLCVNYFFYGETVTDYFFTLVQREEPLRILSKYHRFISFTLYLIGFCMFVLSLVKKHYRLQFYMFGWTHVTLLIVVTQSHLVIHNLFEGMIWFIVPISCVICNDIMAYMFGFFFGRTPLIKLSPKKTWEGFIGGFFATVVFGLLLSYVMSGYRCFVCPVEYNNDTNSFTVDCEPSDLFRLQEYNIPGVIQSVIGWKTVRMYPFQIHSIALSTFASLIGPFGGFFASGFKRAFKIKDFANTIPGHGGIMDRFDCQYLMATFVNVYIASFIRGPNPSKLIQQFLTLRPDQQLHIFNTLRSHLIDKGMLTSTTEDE
# Outline: (§1)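 Data come from three independent experiments in which Dounce-homogenised Jurkat crude lysate was treated at eight concentrations from 0.1 to 10 mM. Treatment ran 10 min at room temperature and then 3 min at 37 °C, after which 0.8% NP40 and benzonase were added for 60 min at 4 °C before ultracentrifugation. The supernatant underwent TMT labelling and LC-MS/MS, and vsn-normalised intensities were expressed as fold change against the detergent-processed vehicle in each replicate.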
# DOK2 = target: T2, DOK2 (UniProt O60496)
# T2 sequence (whole entry): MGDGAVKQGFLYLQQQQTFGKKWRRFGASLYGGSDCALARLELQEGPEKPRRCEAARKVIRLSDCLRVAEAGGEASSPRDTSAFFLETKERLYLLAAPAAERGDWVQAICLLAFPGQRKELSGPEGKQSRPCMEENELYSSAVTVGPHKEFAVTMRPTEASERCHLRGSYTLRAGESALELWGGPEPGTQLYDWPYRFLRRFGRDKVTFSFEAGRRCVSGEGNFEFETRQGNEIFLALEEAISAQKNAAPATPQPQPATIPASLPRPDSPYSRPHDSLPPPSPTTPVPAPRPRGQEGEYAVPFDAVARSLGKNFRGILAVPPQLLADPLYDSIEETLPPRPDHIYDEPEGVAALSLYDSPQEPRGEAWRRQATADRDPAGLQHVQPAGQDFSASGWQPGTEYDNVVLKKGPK
# Outline: as §1
# EDF1 = target: T3, EDF1 (UniProt O60869)
# T3 sequence (whole entry): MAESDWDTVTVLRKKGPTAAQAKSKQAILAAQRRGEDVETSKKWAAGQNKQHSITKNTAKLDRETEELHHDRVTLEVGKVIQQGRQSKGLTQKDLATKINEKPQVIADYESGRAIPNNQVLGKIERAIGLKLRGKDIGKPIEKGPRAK
# Outline: as §1
# MFN2 = target: T4, MFN2 (UniProt O95140)
# T4 sequence (whole entry): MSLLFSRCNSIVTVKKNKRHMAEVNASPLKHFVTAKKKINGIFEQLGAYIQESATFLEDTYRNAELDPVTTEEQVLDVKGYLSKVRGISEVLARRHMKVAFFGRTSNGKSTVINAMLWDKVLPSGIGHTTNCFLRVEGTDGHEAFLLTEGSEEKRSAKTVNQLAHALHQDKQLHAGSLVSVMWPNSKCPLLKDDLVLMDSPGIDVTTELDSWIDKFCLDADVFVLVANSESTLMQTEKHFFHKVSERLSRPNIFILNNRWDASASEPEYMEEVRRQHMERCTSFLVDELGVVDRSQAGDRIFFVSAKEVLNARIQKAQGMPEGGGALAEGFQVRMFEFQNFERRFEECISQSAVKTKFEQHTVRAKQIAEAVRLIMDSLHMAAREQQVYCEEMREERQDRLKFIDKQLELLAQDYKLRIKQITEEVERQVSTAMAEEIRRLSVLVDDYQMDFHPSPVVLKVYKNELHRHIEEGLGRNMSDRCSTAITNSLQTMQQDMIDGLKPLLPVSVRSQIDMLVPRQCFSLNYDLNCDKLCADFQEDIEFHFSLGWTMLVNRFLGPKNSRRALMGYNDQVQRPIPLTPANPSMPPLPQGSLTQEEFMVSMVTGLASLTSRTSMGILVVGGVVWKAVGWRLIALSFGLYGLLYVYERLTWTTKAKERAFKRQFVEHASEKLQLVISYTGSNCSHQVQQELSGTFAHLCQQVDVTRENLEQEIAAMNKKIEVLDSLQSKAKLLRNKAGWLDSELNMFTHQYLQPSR
# Outline: as §1
# PGLS = target: T5, PGLS (UniProt O95336)
# T5 sequence (whole entry): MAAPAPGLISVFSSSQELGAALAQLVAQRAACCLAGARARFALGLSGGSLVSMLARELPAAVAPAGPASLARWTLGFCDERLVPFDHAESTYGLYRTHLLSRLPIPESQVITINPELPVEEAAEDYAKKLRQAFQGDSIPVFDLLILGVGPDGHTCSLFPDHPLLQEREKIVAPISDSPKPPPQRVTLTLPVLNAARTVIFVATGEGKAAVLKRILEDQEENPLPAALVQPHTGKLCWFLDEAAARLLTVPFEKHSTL
# Outline: as §1
compound,measurement,setting,value
Nc1ncnc2c1ncn2[C@@H]1O[C@H](COP(=O)(O)OP(=O)(O)OP(=O)(O)O)[C@@H](O)[C@H]1O [adenosine triphosphate],NP40-soluble protein abundance,CDS2; concentration: 1mM,0.878 ± 0.029
same,NP40-soluble protein abundance,CDS2; concentration: 2mM,0.891 ± 0.063
same,NP40-soluble protein abundance,CDS2; concentration: 4mM,0.881 ± 0.033
same,NP40-soluble protein abundance,CDS2; concentration: 6mM,0.858 ± 0.043
same,NP40-soluble protein abundance,CDS2; concentration: 8mM,0.863 ± 0.041
same,NP40-soluble protein abundance,CDS2; concentration: 10mM,0.886 ± 0.05
same,NP40-soluble protein abundance,DOK2; concentration: 1mM,0.983 ± 0.013
same,NP40-soluble protein abundance,DOK2; concentration: 2mM,0.987 ± 0.038
same,NP40-soluble protein abundance,DOK2; concentration: 4mM,0.9766 ± 0.0063
same,NP40-soluble protein abundance,DOK2; concentration: 6mM,0.938 ± 0.045
same,NP40-soluble protein abundance,DOK2; concentration: 8mM,0.967 ± 0.011
same,NP40-soluble protein abundance,DOK2; concentration: 10mM,0.964 ± 0.027
same,NP40-soluble protein abundance,EDF1; concentration: 1mM,0.996 ± 0.11
same,NP40-soluble protein abundance,EDF1; concentration: 2mM,1.01 ± 0.064
same,NP40-soluble protein abundance,EDF1; concentration: 4mM,1 ± 0.043
same,NP40-soluble protein abundance,EDF1; concentration: 6mM,1.11 ± 0.11
same,NP40-soluble protein abundance,EDF1; concentration: 8mM,1.02 ± 0.022
same,NP40-soluble protein abundance,EDF1; concentration: 10mM,0.99 ± 0.08
same,NP40-soluble protein abundance,MFN2; concentration: 1mM,1.06 ± 0.021
same,NP40-soluble protein abundance,MFN2; concentration: 2mM,1.05 ± 0.033
same,NP40-soluble protein abundance,MFN2; concentration: 4mM,1.05 ± 0.056
same,NP40-soluble protein abundance,MFN2; concentration: 6mM,0.994 ± 0.083
same,NP40-soluble protein abundance,MFN2; concentration: 8mM,1.05 ± 0.049
same,NP40-soluble protein abundance,MFN2; concentration: 10mM,1.02 ± 0.013
same,NP40-soluble protein abundance,PGLS; concentration: 1mM,1 ± 0.022
same,NP40-soluble protein abundance,PGLS; concentration: 2mM,0.998 ± 0.011
same,NP40-soluble protein abundance,PGLS; concentration: 4mM,0.9917 ± 0.0014

# Exported tab-delimited: entries from further up
compound	measurement	setting	value
Nc1ncnc2c1ncn2[C@@H]1O[C@H](COP(=O)(O)OP(=O)(O)OP(=O)(O)O)[C@@H](O)[C@H]1O [adenosine triphosphate]	NP40-soluble protein abundance	CDS2; concentration: 6mM	0.858 ± 0.043
same	NP40-soluble protein abundance	CDS2; concentration: 8mM	0.863 ± 0.041
